The values below come from publication PMC2614481.

T1: Sp_Alp13p (S. pombe) (UniProt O13953)
T1 sequence: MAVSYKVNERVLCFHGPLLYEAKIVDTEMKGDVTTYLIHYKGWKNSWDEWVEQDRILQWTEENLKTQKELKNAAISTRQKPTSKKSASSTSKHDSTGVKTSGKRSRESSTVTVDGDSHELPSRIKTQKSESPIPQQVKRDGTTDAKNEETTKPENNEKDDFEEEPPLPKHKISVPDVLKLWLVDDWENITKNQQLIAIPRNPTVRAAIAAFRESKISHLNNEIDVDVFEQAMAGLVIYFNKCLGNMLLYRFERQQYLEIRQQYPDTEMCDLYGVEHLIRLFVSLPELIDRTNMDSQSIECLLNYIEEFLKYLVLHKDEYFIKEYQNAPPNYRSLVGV

T2: Clr6p (S. pombe) (S. pombe) (UniProt O59702)
T2 sequence: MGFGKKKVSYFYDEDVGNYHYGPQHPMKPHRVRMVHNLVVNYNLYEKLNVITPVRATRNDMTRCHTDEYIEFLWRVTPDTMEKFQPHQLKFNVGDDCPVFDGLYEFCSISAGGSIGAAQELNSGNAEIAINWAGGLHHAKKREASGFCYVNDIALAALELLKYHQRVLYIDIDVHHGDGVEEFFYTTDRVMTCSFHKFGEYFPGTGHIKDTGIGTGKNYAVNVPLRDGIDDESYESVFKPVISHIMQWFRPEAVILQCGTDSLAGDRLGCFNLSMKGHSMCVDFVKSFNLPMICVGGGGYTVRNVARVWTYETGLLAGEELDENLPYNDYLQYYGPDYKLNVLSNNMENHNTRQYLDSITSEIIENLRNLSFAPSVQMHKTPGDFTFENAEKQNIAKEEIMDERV

T3: Sp_Png2 (S. pombe) (UniProt O74736)
T3 sequence: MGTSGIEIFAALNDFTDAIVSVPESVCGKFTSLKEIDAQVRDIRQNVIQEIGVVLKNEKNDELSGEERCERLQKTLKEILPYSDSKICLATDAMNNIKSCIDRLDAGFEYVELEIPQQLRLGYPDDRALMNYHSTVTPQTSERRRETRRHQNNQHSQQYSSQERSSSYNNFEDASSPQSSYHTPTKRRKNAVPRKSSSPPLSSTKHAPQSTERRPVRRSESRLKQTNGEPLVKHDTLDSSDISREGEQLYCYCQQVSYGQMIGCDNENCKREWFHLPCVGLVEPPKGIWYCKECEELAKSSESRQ

B1: Sp_Pst2p (protein, UniProt O13919 1-1075)
chain: MEQTLAILKNDNSTLVAEMQNQLVHDFSPNGTALPELDIKAFVQKLGQRLCHRPYVYSAFMDVVKALHNEIVDFPGFIERISVILRDYPDLLEYLNIFLPSSYKYLLSNSGANFTLQFTTPSGPVSTPSTYVATYNDLPCTYHRAIGFVSRVRRALLSNPEQFFKLQDSLRKFKNSECSLSELQTIVTSLLAEHPSLAHEFHNFLPSSIFFGSKPPLGSFPLRGIQSSQFTLSNISDLLSQSRPDNLSPFSHLSNESSDFFKNVKNVLTDVETYHEFLKLLNLYVQGIIDRNILVSRGFGFLKSNSGLWRSFLSLTSLSPEEFLSVYNSACSDFPECGPSYRLLPVEERNISCSGRDDFAWGILNDDWVSHPTWASEESGFIVQRKTPYEEAMTKLEEERYEFDRHIEATSWTIKSLKKIQNRINELPEEERETYTLEEGLGLPSKSIYKKTIKLVYTSEHAEEMFKALERMPCLTLPLVISRLEEKNEEWKSVKRSLQPGWRSIEFKNYDKSLDSQCVYFKARDKKNVSSKFLLAEADILRSQAKLHFPLRSRSAFEFSFVYDNEIVLFDTCYMVCTYIVCNSPSGLKKVEHFFKNILPLHFGLEKDKFSIFLDQVFRGPDYDVNAPNIVGNKPVRRKRSNSITQLTEFVKQPKINGQRESRSAAAARKKEESGNKSQSNSQNSLSDESGNVTPVSKKQLSQPAAAIKASLKYPSHPDSLLEHQDHAGDTENEMHDDVDKEQFGYSSMYVFFRLFNLLYERLYELQRLEDQVSIIQQRIIPNPVSQKQKIWRDRWNDLSDVPDEKTHYENTYVMILRLIYGIVDQSAFEDYLRFYYGNKAYKIYTIDKLVWSAAKQVHHIVSDGKYKFVTSLVEQNSSASPKKNYDDFLYRLEIEKLLNPDEILFRFCWINKFKSFGIKIMKRANLIVDQSLDTQRRVWKKYVQNYRIQKLTEEISYKNYRCPFLCRNIEKERTVEQLVSRLQTKLLRSAELVSGLQAKLCLDSFKLLYLPRTEDSYIDASYLRLRDTDFLDCQNKRKQRWRNRWESLLKSVRGTSDNTAEVNFDADINALFIP
B2: LAF1 (S. pombe) (protein, UniProt O13719 1-297)
chain: MKSSQTLVYSIPRNVEKDTCAAAIKAYQYLISPPPSPIPNDKVASTVDVPKCSTIPESPKDSIVEPKPTATPVAQLHSKVYDLYRDSPKIWLRRERQWLQRHSPAYRFSTPAAKRPRRQPSSFLDVHASNTRKRGSPDTPDSGHSTPHSKGDVHPGMPQHNTRFKQSSREFSSNTQAIDVANTPYELLPDYSPDMSVLDKRSHPRPLRSEWKGPPLDLSNDENRHLLHPAELQLAATLRLPCLVYLDNKRRIFAEWHNRRTQGLSFRKTDAQRASRVDVNKASRLWKAFHDEGFFDD
B3: Sp_Pst3p (protein, UniProt O74755 1-1154)
chain: MDVMNVPVDSERDNPGDKVETQSDKNHLPKASPSQSQSPVNTSLHNGDGKDNGVATEPVENKQILSERSVTRDDYEKGKTIVSSLALSSISGKDGSISSQNAEGLSSSSNRPLDVNDALSYLELVKYYFSERREIYNRFLEIMRDFKSQALDTLGVINRVSELFNGYPQLIEGFNTFLPSGYKIEVQLDSSNTSVVRVGTPMHPLPQQGVQSTLPVAPSNEDQRTMESTSPTDSQPQPSAPNLVSSTENEKPRVDFNYAIAYMNKVKARYPPNSDTYMEFLGVLRTYQKAQKSIFEVRARVAEIFKDSPDLLEEFKLFLPDNVDSTEPSTPNVQKSPNRLPPVGNFSLPPSAPVREKRNRPAHSAQISRSISKTSRMYRQTAEEPLNSYSLHVYPQKITAPTSPYAATQEELLAFTTIRQHLPDTLAFHKFLELLHLYREKLLDKTELLNSFSKLVRNDNLTLWFSEFIRWSDNPILVKNEPVDERVYLPETFECISLTYRKLPDSWKQDKCSGRDDLDNSVLNDDYISVAPKPSHVKNIMHHENQYLQALQLVEDERYDYDRVLNTTESAIKILANFCEPTIHEHLETALQELERSKRIIKNALIIVYGKEHANLALDTLFKKLPTAAPVLLKRIKTKDQEWRRSKREWSKIWRQIEKKNAQAAFDDRYCRIEGRDRRGLSYSRILRDIDDIYQRQKHRIDGAKLGFQFTQVLCDSLIFLNILRLSDAQLTNSSFYSYADKGRISAVLKALLSQFFGIPLPREALETNLASENIESVKKHRDGLSKIFIRPESADNSNNTNVSFQTDETQTEDETMSDIHPDDVENHSKSKFLGEESKNIIGYNFFGNATMYVLFRLICVCYSRLEHIKLFVESSTIYASSTGGYENILNICEKYLKGSCSRLEFRKYLQKFNNETCYMICSIERLLKVIFYRIHEILLDPKLGQLLLLFESDGANSVTTPREQMVYRNHVESILAPESKIFNMRWYPLEKRLCIQQLLPADLTMHDFENPAKAFMYYVDSYAISHITEGVDLMQVKMPFLRRSLQRISQQGYLAGRGSGRLHSLFNEHFCKSNLQLFFSTDTYVIFFEPNTENVYINSYNLWVDQSSQSKKQNRTTNWRRWLESDEGWRKSKANTDIKFFSETTLDQCIEAM
B4: Sp_Dep1p (protein, UniProt Q9P7M1 1-491)
chain: MTENLQSESIPHEILPKEPFDLPMNNLKSSPKNKDSEKRINNSIAESEQVVDSALSNPETNANEDIIAPQLPSQNSEIIEKNSPVNKLNSSTSLTTHQLASLPKLEVTDHDNVSEAETVVLNEDEEKETSLVGSVSVTEDLGDSSAIGRTILVNNSVEPQMENTANITIVSPSLKESDFESEEKATNDNNGLIETNHNSKLEESSEHEEEEDEESNIERTEDSDHQIPQRGGTLEAPRKGGPRSGVGSRKRKRATVSRKWSTNSESKIKRVALETSQEESDREIADRRSASEQAHEADDEKAIKRKEAFDALLNIETEFTFLRNRLYGKKLLKLNEHEEMIQNETHERFNACIDLITERRDDRVRLATENLMKQLGNIKNVMDYVTKQRKYQLLFDKRRIRQALLTKIATKCFQLLNKQKSVHDPTYITQKTMSYRQSALLQKQRIEYEAAVLCELNSFAGFPTAPIIETASFDDIRNDLLEMGCLSENQD
B5: Sp_Cti6p (protein, UniProt Q1MTR4 1-424)
chain: MPSNSTPANEEKEEESEKIQKSPVDTPHTPNGSVSDNEENETSSTGEVTRCVCGIVESDDEASDGGLYIQCDQCSVWQHGNCVGFADESEVPEVYYCEICHPEFHKVYQRGRGAKQSKYLGNGKPIEASQTEESSSTPPSPATKKSSKQRLTMNSRDAALDYEEYLAIAKEKSLIPRRSRGRTSSKSLSPPAPQDESQGTEINLKQKIEEENDEILEDSKESKDENEENKETSTTNVAETDAPEEETVDTVEEIADEEKHSVKEESGEASPQSSQQSTITSISTTTRSTRKAKREAAAEDKADLPAAVAPKPSKTRKVGGRRGKSSSNDNHRIPQLHPDGTFVETITKPKGLHSRITMTEMRRRVASMLEYIGHIQVEMAAQSAGNQSSTKSSKEGPEEEKETLRMVDNLTRDLLHWEQRFSRT
B6: Sp_Rxt3p (protein, UniProt O94707 1-351)
chain: MEEKTPENEQSKKTFDPKDSMKIEETSTNGSSQPSQPSNIKLSIGSILESSNDNGDPEYSENGMGNMNMNTLPMATSTPMSYTKQPSEAKYPNSVWERKGVSDQEENTSSVKRQKTLPTQSSGEEEAKYSHPGAPTATSADSISMESRPSNLSTSLSKTTSYPQFQVRQFVSPIISIDNSALEPFLNRYPASESLFPVTEYEYTPWLEFPLLYSSIGKFVRVTIDIKWLNAAINPRLCRREIWGTDVYTDDSDIATILAHCGCFSLLKPVRKIAVVDLYILPPLVHYKGTRKNQIESRSWSSRQDGISLKIKEVTWKPACASIFENSIHTLTLEERLQARLELSRSSTFKI
B7: SDS3 (S. pombe) (protein, UniProt Q9UTB6 1-267)
chain: MDVLSRVFDNEKEELDPLLNNPLTASEFRAKKAELEAELESIRNGTCKTLLDLADELRRSRDEELEIAERWRTFLVNRAQEEYEVEMKAAKEEYEYRCKTLKEMVLSHLNEKKRKIYEAKDMFDIGSESSTLLLHDASSQFIDRRKLRHRRNAGNQQNTQQLPSLNFFDDYLLFPTDETAVIPQSVKNAVRNSVNSVKPTSAEASLFSPLLSMANANPTNGRERDPRASERAERDREKAVEKGLSGATEEDIQSDLQLLKKELAKKK
B8: Sp_Prw1p (protein, UniProt O14021 1-431)
chain: MAVSAVPHPSKQAQASEEGINQEKCINEEYKIWKKNSPFLYDLIITRALEWPCMSLQWYPEQQIFAEHGYTEQKMFLGVRADVGKYLLAVASIQLPYLNQTVPPTTMEGASAGDESSLRVNISNLYSHPESVCSAKLMPQDDSCVATVGNYHNDVLVFDKESFESYSSASESPLKPKYRLTKHTQPCTSVCWNFLSKGTLVSGSQDATLSCWDLNAYNESDSASVLKVHISSHEKQVSDVRFHYKHQDLLASVSYDQYLHVHDIRRPDASTKPARSVHAHSGPIHSVAFNPHNDFILATCSTDKTIALWDLRNLNQRLHTLEGHEDIVTKISFSPHEEPILASTSADRRTLVWDLSRIGEDQPAEEAQDGPPELLFMHGGHTSCTIDMDWCPNYNWTMATAAEDNILQIWTPSRSIWGNEQLEEDATAYLS

These are yes or no findings as the source states them, for the method shown. Binding seen in cells or lysates may run through a third protein. A yes stands for co-enrichment or nearness to the bait. Other partners may have been found.

The first test has as its target T1, Sp_Alp13p (S. pombe). The test can be described thus: affinity purification with mass spectrometry; TAP of baits TAP-tagged at their genes from S. pombe extracts; eluates on 6-18% gels, Coomassie, bands and slices identified by MALDI peptide mapping and LC-MS/MS; common background removed, A-index cut-off 1.75.
Turning to B1, the binding entry is “binds”.

The next test concerns the target T2, Clr6p (S. pombe) (S. pombe). The test is described as above.
In the case of B2, the binding entry was “binds”.
On the same count and under the same terms, the entry for B3 is “binds”.
Still for that read-out and setting: the entry for B4 is “binds”; for B1 it is “binds”.
Still for that read-out and setting: in the case of B5 it was “binds”; in that of B6, “binds”.
Take B7: the binding entry is given as “binds”.
The same measure, in the same setting: the entry for B8 is “binds”.

A further test deals with T3, Sp_Png2 (S. pombe). The description is as above.
Regarding B2, the binding result is “binds”.
On the same count and under the same terms, the entry for B3 is “binds”.
The same measure, in the same setting: in the case of B4 it was “binds”.
Turning to B5, the binding result was “binds”.
In the case of B6, the binding result is “binds”.
B7: the binding entry is listed as “binds”.
On the same count and under the same terms, in the case of B8 it was “binds”.
